Experiments:
p16 = test: mRNA expression level of p16, a marker of senescent cells, in tissues of aged mice (real-time RT-PCR, GAPDH as internal standard); type: in vivo; details: aged male C57BL/6J mice (78 weeks old), test substance in drinking water ad libitum for one month, compared to aged mice having no additional administration, FIG. 2, lower panel
Description: (§1) As animals, experiments was performed using 7 young mice (male C57BL/6J mice, 7 weeks old) and 28 aged mice (male C57BL/6J-Aged mice, 78 weeks old).
(§2) Group 1 was constituted of young mice, and aged mice were divided into 4 groups each consisting of 7 mice (Groups 2 to 5) and the experimental conditions of individual groups are set as shown in the Table below.
(§3) As explained below, water comprising a test substance was given to the mice of Group 3 to Group 5.
(§4) The each types of drinking water which were prepared by adding a test substance as mentioned above was given to mice of each of the groups ad libitum, and the test substance was orally administered for one month. One month after the initiation of the experiment, all mice were sacrificed and dissected. […]
(§5) The RNA was purified with 75% ethanol, evaporated to dry under reduced pressure, and dissolved in 50 micro l of RNA-free water. Using NanoDrop ND-1000 (NanoDrop Technologies), absorbance was measured at 260 nm and 280 nm to determination of an absorbance ratio (A260/280 nm), RNA purity was confirmed by checking whether or not the absorbance ratio falls within the range of 1.9 to 2.1.
(§6) Quantitative real-time PCR was performed using total RNA extracted from the tissue for analysis of mRNA expressions of senescence markers p16 and p21 commonly known in the technical field. […]

p21 = test: mRNA expression level of p21, a marker of senescent cells, in tissues of aged mice (real-time RT-PCR, GAPDH as internal standard); type: in vivo; details: aged male C57BL/6J mice (78 weeks old), test substance in drinking water ad libitum for one month, compared to aged mice having no additional administration, FIG. 2, upper panel
Description: as §1, §2, §3, §4, §5, §6

In the case of `Cl.NCCC[C@H](N)C(=O)O` [ornithine, L-ornithine hydrochloride], the “mRNA expression level of marker p16 for senescent cells in the liver” value (p16) is reported as “tended to decrease” and the “mRNA expression level of marker p21 for senescent cells in the liver” value (p21) is reported as “tended to decrease”.

— patent US20250281517A1, “SENOLYSIS BY AMMONIA-LOWERING COMPONENT” (TAZ Inc., priority 2022, published 2025)
